# Results from the supplement of paper PMC12823440, “Inhibitors supercharge kinase turnover through native proteolytic circuits” (Nature, 2025).
# Sequences of proteins named here, by UniProt entry; tags and fusion partners are left off. A change or cut given only in a name is not applied to a line headed by its entry.
# UniProt P00519, whole entry: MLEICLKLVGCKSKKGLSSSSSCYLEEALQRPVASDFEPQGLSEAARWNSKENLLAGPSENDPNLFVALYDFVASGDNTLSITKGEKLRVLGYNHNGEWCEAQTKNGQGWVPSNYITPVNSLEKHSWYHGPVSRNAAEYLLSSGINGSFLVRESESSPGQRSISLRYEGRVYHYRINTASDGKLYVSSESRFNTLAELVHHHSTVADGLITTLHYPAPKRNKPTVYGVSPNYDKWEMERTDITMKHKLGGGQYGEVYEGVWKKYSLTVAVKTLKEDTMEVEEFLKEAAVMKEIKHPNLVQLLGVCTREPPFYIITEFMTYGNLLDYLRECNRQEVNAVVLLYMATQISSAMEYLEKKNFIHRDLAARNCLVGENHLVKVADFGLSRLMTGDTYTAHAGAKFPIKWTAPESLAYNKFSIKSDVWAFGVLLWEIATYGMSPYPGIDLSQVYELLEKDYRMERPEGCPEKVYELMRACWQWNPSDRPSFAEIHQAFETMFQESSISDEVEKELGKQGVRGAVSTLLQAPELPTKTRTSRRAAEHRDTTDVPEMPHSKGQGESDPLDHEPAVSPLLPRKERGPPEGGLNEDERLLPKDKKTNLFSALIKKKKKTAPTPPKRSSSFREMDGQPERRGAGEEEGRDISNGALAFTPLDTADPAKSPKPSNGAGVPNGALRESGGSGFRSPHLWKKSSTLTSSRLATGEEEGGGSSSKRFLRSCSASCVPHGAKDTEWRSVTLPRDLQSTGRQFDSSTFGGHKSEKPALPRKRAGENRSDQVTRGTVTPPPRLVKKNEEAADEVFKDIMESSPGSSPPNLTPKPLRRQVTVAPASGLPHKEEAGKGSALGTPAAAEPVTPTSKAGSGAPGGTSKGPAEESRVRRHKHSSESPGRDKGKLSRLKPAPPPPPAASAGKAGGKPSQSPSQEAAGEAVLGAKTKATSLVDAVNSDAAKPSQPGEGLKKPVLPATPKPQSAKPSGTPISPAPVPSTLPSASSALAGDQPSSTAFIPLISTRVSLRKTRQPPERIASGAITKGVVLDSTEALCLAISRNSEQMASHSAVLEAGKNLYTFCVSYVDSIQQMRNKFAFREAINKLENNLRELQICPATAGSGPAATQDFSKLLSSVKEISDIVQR
# UniProt P31749: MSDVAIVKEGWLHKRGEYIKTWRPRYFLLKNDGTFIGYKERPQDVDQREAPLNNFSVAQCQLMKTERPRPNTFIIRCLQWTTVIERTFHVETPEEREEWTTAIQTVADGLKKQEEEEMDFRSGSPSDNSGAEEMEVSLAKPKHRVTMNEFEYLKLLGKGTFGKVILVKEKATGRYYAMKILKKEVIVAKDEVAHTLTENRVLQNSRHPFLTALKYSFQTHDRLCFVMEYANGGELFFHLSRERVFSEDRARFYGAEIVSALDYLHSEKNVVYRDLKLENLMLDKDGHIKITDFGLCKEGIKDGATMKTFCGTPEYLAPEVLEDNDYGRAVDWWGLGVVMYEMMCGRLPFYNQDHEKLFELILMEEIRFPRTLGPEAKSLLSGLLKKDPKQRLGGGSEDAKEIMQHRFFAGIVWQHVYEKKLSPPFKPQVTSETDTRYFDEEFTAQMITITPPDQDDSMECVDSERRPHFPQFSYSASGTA
# UniProt P10398: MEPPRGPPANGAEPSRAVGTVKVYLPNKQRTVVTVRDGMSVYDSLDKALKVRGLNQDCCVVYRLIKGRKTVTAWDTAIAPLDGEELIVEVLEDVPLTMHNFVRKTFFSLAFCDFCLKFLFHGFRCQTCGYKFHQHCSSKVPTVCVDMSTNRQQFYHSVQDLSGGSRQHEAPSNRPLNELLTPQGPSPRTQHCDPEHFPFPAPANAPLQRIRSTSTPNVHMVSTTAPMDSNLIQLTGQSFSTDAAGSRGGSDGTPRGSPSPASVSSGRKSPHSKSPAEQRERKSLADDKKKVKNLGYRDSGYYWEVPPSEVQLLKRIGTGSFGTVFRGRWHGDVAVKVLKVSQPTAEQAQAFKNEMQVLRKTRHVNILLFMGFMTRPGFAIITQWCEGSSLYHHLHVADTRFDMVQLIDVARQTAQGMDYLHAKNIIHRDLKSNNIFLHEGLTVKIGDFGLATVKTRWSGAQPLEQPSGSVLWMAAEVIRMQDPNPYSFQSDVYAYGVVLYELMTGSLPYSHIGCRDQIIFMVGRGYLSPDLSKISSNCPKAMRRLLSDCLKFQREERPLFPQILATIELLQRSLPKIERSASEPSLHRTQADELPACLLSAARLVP
# UniProt O14965: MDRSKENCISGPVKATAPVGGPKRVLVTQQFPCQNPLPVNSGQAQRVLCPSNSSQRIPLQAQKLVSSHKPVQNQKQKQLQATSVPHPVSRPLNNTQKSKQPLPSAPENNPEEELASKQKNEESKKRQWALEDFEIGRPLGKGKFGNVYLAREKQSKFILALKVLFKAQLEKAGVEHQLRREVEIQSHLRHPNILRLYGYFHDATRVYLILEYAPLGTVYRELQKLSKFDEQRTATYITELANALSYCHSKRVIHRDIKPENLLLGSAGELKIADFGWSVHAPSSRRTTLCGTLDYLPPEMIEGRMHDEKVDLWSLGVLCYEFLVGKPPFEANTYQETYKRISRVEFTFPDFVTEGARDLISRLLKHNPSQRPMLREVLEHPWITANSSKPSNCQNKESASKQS
# UniProt Q96GD4, whole entry: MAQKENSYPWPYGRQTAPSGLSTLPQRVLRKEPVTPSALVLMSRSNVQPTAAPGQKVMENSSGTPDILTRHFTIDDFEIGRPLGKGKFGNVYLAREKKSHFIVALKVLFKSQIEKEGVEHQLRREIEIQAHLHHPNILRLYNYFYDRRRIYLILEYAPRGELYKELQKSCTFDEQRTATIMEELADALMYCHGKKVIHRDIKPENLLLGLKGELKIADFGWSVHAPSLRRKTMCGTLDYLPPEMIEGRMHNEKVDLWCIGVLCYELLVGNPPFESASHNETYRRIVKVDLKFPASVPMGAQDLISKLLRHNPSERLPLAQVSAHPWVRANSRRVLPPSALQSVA
# UniProt Q9UQB9: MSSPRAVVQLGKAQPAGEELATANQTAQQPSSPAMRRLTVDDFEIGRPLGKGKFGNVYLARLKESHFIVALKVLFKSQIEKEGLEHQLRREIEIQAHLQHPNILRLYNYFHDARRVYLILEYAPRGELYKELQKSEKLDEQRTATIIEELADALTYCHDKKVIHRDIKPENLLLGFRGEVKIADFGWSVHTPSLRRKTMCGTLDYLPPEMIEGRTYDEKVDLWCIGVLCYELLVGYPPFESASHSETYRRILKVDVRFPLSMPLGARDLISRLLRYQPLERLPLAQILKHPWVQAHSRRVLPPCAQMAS
# UniProt P51451: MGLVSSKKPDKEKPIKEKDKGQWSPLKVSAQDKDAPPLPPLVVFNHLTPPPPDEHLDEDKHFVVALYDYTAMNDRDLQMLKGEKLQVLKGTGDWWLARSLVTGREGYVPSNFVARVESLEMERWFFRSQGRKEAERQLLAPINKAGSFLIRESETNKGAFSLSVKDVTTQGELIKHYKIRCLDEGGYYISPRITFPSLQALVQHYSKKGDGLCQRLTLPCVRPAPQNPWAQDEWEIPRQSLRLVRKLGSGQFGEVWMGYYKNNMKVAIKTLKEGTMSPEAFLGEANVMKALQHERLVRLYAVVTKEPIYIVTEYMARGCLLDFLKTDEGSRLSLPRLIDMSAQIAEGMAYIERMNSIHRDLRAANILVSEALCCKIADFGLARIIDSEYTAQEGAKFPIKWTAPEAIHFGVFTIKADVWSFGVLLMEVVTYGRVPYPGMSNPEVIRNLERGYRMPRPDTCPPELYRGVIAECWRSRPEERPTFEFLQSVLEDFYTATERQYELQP
# UniProt P51813: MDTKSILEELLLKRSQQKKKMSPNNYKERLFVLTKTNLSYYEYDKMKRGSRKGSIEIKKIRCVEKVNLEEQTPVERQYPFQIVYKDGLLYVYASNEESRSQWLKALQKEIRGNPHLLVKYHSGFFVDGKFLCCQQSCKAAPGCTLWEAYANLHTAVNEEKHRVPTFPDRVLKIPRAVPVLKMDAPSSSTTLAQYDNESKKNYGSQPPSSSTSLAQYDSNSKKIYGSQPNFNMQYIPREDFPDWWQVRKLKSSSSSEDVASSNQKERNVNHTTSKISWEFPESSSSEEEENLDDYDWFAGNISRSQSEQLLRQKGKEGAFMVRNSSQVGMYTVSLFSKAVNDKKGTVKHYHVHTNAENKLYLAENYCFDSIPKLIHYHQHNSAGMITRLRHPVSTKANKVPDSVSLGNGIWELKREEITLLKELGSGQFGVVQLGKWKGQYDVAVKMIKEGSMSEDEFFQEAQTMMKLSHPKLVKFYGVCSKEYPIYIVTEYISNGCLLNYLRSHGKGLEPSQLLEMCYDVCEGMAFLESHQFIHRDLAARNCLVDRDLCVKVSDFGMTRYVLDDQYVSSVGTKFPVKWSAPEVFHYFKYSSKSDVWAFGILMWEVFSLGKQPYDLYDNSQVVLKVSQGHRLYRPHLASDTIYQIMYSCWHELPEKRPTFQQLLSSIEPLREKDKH
# UniProt P15056, whole entry, looked up: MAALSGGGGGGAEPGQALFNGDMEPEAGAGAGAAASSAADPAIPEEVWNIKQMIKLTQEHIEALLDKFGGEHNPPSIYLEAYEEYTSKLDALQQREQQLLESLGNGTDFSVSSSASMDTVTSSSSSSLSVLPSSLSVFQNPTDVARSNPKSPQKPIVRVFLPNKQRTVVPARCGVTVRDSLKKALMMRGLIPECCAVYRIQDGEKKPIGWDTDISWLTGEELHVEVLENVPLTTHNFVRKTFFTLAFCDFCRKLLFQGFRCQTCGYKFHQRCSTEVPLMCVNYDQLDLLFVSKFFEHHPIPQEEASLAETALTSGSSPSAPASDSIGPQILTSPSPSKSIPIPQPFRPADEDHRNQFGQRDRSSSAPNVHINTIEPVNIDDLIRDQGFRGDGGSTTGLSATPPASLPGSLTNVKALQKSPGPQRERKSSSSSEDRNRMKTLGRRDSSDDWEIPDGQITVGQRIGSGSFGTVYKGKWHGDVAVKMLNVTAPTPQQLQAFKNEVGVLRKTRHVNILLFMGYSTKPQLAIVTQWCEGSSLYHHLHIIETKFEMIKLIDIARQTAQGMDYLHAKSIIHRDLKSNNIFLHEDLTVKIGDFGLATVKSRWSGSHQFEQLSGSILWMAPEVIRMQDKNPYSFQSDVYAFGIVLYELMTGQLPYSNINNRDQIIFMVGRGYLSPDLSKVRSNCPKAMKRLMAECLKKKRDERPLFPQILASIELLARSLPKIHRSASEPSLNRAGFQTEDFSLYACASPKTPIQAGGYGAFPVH
# This is one part of the list. Hit calls seldom repeat between salt and free forms of one compound.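 Kinases, fused to nanoluciferase, were expressed in K562 cells; luminescence was measured every 4 h from 2 to 18 h as percent of control (DMSO = 100%, positive control = 0%). A time point is decreased if signal falls significantly (2 sigma). Hits were called by the authors by a rule that is not shown; the count of time points alone does not decide it.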
# Key:
# Assay in all cases: kinase-Nluc reporter destabilization hit call (1 = scored as downregulated) (binary); higher = compound decreases kinase abundance
# Conditions in all cases: K562; 2-18 h
# ABL1 = ABL1 (UniProt P00519)
# AKT1 = AKT1 (UniProt P31749)
# ALK = ALK (UniProt Q9UM73)
# ARAF = ARAF (UniProt P10398)
# AURKA = AURKA (UniProt O14965)
# AURKB = AURKB (UniProt Q96GD4)
# AURKC = AURKC (UniProt Q9UQB9)
# BLK = BLK (UniProt P51451)
# BMX = BMX (UniProt P51813)
# BRAF = BRAF (UniProt P15056)
Structure (SMILES),kinase-Nluc reporter destabilization hit call (ABL1),kinase-Nluc reporter destabilization hit call (AKT1),kinase-Nluc reporter destabilization hit call (ALK),kinase-Nluc reporter destabilization hit call (ARAF),kinase-Nluc reporter destabilization hit call (AURKA),kinase-Nluc reporter destabilization hit call (AURKB),kinase-Nluc reporter destabilization hit call (AURKC),kinase-Nluc reporter destabilization hit call (BLK),kinase-Nluc reporter destabilization hit call (BMX),kinase-Nluc reporter destabilization hit call (BRAF)
CCc1cccc(CC)c1NC(=O)c1nn(C)c2c1CCc1cnc(Nc3ccc(C(=O)NC4CCN(C)CC4)cc3OC(F)(F)F)nc1-2 (2 µM),inactive: 0,inactive: 0,inactive: 0,inactive: 0,inactive: 0,inactive: 0,inactive: 0,inactive: 0,inactive: 0,inactive: 0
O=C(c1ccc(Nc2nccc(-c3cc4ccccc4s3)n2)cc1)N1CCC(N2CCCC2)CC1 (2.5 µM),inactive: 0,inactive: 0,inactive: 0,inactive: 0,inactive: 0,inactive: 0,inactive: 0,inactive: 0,inactive: 0,inactive: 0
Cc1cc(C(C)Nc2ccccc2)c2nc(N3CCOCC3)cc(=O)n2c1 (stereo not given) (10 µM),inactive: 0,inactive: 0,inactive: 0,inactive: 0,inactive: 0,inactive: 0,inactive: 0,inactive: 0,inactive: 0,inactive: 0
Nc1cc(C(F)(F)F)c(-c2nc(N3CCOCC3)nc(N3CCOCC3)n2)cn1 [Bimiralisib] (10 µM),inactive: 0,inactive: 0,inactive: 0,inactive: 0,inactive: 0,inactive: 0,inactive: 0,inactive: 0,inactive: 0,inactive: 0
C[C@H]1[C@H](OC(=O)CCC(=O)O)O[C@@H]2O[C@@]3(C)CC[C@H]4[C@H](C)CC[C@@H]1[C@@]24OO3 [Artesunate] (2.5 µM),inactive: 0,inactive: 0,inactive: 0,inactive: 0,inactive: 0,inactive: 0,inactive: 0,inactive: 0,inactive: 0,inactive: 0
COc1ccc2c(=O)c(-c3ccccc3)coc2c1 [7-Methoxyisoflavone] (10 µM),inactive: 0,inactive: 0,inactive: 0,inactive: 0,active: 1,inactive: 0,inactive: 0,inactive: 0,inactive: 0,inactive: 0
O=c1cc(-c2ccc(O)c(O)c2O)oc2ccccc12 (10 µM),inactive: 0,inactive: 0,inactive: 0,inactive: 0,inactive: 0,inactive: 0,inactive: 0,inactive: 0,inactive: 0,inactive: 0
C=CC(=O)Nc1cccc(Oc2nc(Nc3ccc(N4CCN(C)CC4)cc3)nc3ccoc23)c1 [Poseltinib] (10 µM),inactive: 0,inactive: 0,inactive: 0,inactive: 0,inactive: 0,inactive: 0,inactive: 0,inactive: 0,inactive: 0,inactive: 0
COC(=O)[C@@]1(C)CC[C@]2(C(=O)O)CC[C@]3(C)C(=CC[C@@H]4[C@@]5(C)C[C@H](O)[C@H](O[C@@H]6OC[C@@H](O[C@@H]7O[C@H](CO)[C@@H](O)[C@H](O)[C@H]7O)[C@H](O)[C@H]6O)[C@@](C)(CO)[C@@H]5CC[C@]43C)[C@@H]2C1 [Esculentoside A] (10 µM),inactive: 0,inactive: 0,inactive: 0,inactive: 0,inactive: 0,inactive: 0,inactive: 0,inactive: 0,inactive: 0,inactive: 0
O=c1ccc2ccc(O)c(O)c2o1 [Daphnetin] (10 µM),inactive: 0,inactive: 0,inactive: 0,inactive: 0,inactive: 0,inactive: 0,inactive: 0,inactive: 0,inactive: 0,inactive: 0
CN1CCN(CCCNc2ncc(Cl)c(-c3cc4c(C(=O)NC5CC5)cccc4s3)n2)CC1 (10 µM),inactive: 0,inactive: 0,inactive: 0,inactive: 0,inactive: 0,inactive: 0,inactive: 0,inactive: 0,inactive: 0,inactive: 0
C=CC(=O)N1CCC(Oc2cc3c(Nc4ccc(Cl)c(Cl)c4F)ncnc3cc2OC)CC1 [Poziotinib] (2.5 µM),inactive: 0,inactive: 0,inactive: 0,inactive: 0,inactive: 0,inactive: 0,inactive: 0,inactive: 0,inactive: 0,inactive: 0
C=CS(=O)(=O)c1ccc(Nc2nc(OCC3CCCCC3)c3[nH]cnc3n2)cc1 (2.5 µM),inactive: 0,inactive: 0,inactive: 0,inactive: 0,inactive: 0,inactive: 0,inactive: 0,inactive: 0,inactive: 0,inactive: 0
COc1nc(-c2ccnc(NC(=O)C3CC3)c2)sc1C(N)=O [GSK-3β inhibitor 2] (10 µM),inactive: 0,inactive: 0,inactive: 0,inactive: 0,inactive: 0,inactive: 0,inactive: 0,inactive: 0,inactive: 0,inactive: 0
O=C(O)c1ccccc1Nc1cccc(C(F)(F)F)c1 [Flufenamic acid] (10 µM),inactive: 0,inactive: 0,inactive: 0,inactive: 0,inactive: 0,inactive: 0,inactive: 0,inactive: 0,inactive: 0,inactive: 0
CC(C)n1cnc2c(Nc3cccc(Cl)c3)nc(NCCO)nc21 (10 µM),inactive: 0,inactive: 0,inactive: 0,inactive: 0,inactive: 0,inactive: 0,inactive: 0,inactive: 0,inactive: 0,inactive: 0
Nc1n[nH]c2cc(-c3ccc(=O)n(Cc4cccc(Cl)c4)c3)ccc12 (10 µM),inactive: 0,inactive: 0,inactive: 0,inactive: 0,inactive: 0,inactive: 0,inactive: 0,inactive: 0,inactive: 0,inactive: 0
CN(C)Cc1cccc(N=C(c2ccccc2)c2c(O)[nH]c3cc(C(=O)N(C)C)ccc23)c1 (10 µM),inactive: 0,inactive: 0,inactive: 0,inactive: 0,inactive: 0,inactive: 0,inactive: 0,inactive: 0,inactive: 0,inactive: 0
CC(=O)NCCc1c[nH]c2ccc(O)cc12 [N-Acetyl-5-hydroxytryptamine] (10 µM),inactive: 0,inactive: 0,inactive: 0,inactive: 0,inactive: 0,inactive: 0,inactive: 0,inactive: 0,inactive: 0,inactive: 0
COc1ncc(Nc2ncc([C@@H](C)N3CCN(S(C)(=O)=O)CC3)cc2-c2nc(C)nc(N)n2)cc1F (10 µM),inactive: 0,inactive: 0,inactive: 0,inactive: 0,inactive: 0,inactive: 0,inactive: 0,inactive: 0,inactive: 0,inactive: 0
O=C(Nc1ccc(Cl)cc1)C1CCCN(C(=O)c2cccc(-c3ccco3)c2)C1 (stereo not given) (2.5 µM),inactive: 0,inactive: 0,inactive: 0,inactive: 0,inactive: 0,inactive: 0,inactive: 0,inactive: 0,inactive: 0,inactive: 0
O=C1NC(=O)C(c2cnc3ccccn23)=C1c1cn2c3c(cc(F)cc13)CN(C(=O)N1CCCCC1)CC2 (2.5 µM),inactive: 0,inactive: 0,inactive: 0,inactive: 0,inactive: 0,inactive: 0,inactive: 0,inactive: 0,active: 1,inactive: 0
CN(C)c1nc2c(Br)c(Br)c(Br)c(Br)c2n1CC(=O)O (10 µM),inactive: 0,inactive: 0,inactive: 0,inactive: 0,inactive: 0,inactive: 0,inactive: 0,inactive: 0,inactive: 0,inactive: 0
CN(C)C(=O)c1ccc(S(=O)(=O)c2ccc(NC(=O)[C@@](C)(O)C(F)(F)F)c(Cl)c2)cc1 (10 µM),inactive: 0,inactive: 0,inactive: 0,inactive: 0,inactive: 0,inactive: 0,inactive: 0,inactive: 0,inactive: 0,inactive: 0
O=C(O)c1cc(O)c2c(c1)[C@@H]([C@H]1c3cc(C(=O)O)cc(O)c3C(=O)c3c(O[C@@H]4O[C@H](CO)[C@@H](O)[C@H](O)[C@H]4O)cccc31)c1cccc(O[C@@H]3O[C@H](CO)[C@@H](O)[C@H](O)[C@H]3O)c1C2=O [Sennoside B] (2.5 µM),inactive: 0,inactive: 0,inactive: 0,inactive: 0,inactive: 0,inactive: 0,inactive: 0,inactive: 0,inactive: 0,inactive: 0
COc1cc2ncnc(Nc3ccc(NC(=O)c4ccccc4)cc3)c2cc1OC [Aurora kinase inhibitor-2] (2.5 µM),inactive: 0,inactive: 0,inactive: 0,inactive: 0,inactive: 0,inactive: 0,inactive: 0,inactive: 0,inactive: 0,inactive: 0
CN(C)c1ncnc2nc[nH]c12 [6-(Dimethylamino)purine] (10 µM),inactive: 0,inactive: 0,inactive: 0,inactive: 0,inactive: 0,inactive: 0,inactive: 0,inactive: 0,inactive: 0,inactive: 0
O=Nc1c(-c2c(O)[nH]c3ccccc23)[nH]c2ccccc12 [Indirubin-3'-monoxime] (2.5 µM),inactive: 0,inactive: 0,inactive: 0,inactive: 0,inactive: 0,inactive: 0,inactive: 0,inactive: 0,inactive: 0,inactive: 0
COc1c(C)c(C(=O)c2ccc(N)c(C(=O)O)c2)n2ccccc12 (10 µM),inactive: 0,inactive: 0,inactive: 0,inactive: 0,inactive: 0,inactive: 0,inactive: 0,inactive: 0,inactive: 0,inactive: 0

# In the list so far, 6 have an NH in an aromatic ring:
Structure (SMILES),kinase-Nluc reporter destabilization hit call (ABL1),kinase-Nluc reporter destabilization hit call (AKT1),kinase-Nluc reporter destabilization hit call (ALK),kinase-Nluc reporter destabilization hit call (ARAF),kinase-Nluc reporter destabilization hit call (AURKA),kinase-Nluc reporter destabilization hit call (AURKB),kinase-Nluc reporter destabilization hit call (AURKC),kinase-Nluc reporter destabilization hit call (BLK),kinase-Nluc reporter destabilization hit call (BMX),kinase-Nluc reporter destabilization hit call (BRAF)
C=CS(=O)(=O)c1ccc(Nc2nc(OCC3CCCCC3)c3[nH]cnc3n2)cc1 (2.5 µM),inactive: 0,inactive: 0,inactive: 0,inactive: 0,inactive: 0,inactive: 0,inactive: 0,inactive: 0,inactive: 0,inactive: 0
Nc1n[nH]c2cc(-c3ccc(=O)n(Cc4cccc(Cl)c4)c3)ccc12 (10 µM),inactive: 0,inactive: 0,inactive: 0,inactive: 0,inactive: 0,inactive: 0,inactive: 0,inactive: 0,inactive: 0,inactive: 0
CN(C)Cc1cccc(N=C(c2ccccc2)c2c(O)[nH]c3cc(C(=O)N(C)C)ccc23)c1 (10 µM),inactive: 0,inactive: 0,inactive: 0,inactive: 0,inactive: 0,inactive: 0,inactive: 0,inactive: 0,inactive: 0,inactive: 0
CC(=O)NCCc1c[nH]c2ccc(O)cc12 [N-Acetyl-5-hydroxytryptamine] (10 µM),inactive: 0,inactive: 0,inactive: 0,inactive: 0,inactive: 0,inactive: 0,inactive: 0,inactive: 0,inactive: 0,inactive: 0
CN(C)c1ncnc2nc[nH]c12 [6-(Dimethylamino)purine] (10 µM),inactive: 0,inactive: 0,inactive: 0,inactive: 0,inactive: 0,inactive: 0,inactive: 0,inactive: 0,inactive: 0,inactive: 0
O=Nc1c(-c2c(O)[nH]c3ccccc23)[nH]c2ccccc12 [Indirubin-3'-monoxime] (2.5 µM),inactive: 0,inactive: 0,inactive: 0,inactive: 0,inactive: 0,inactive: 0,inactive: 0,inactive: 0,inactive: 0,inactive: 0
